No constants are given. Whether binding was seen depends on the method and setting. Binding seen in cells or lysates may run through a third protein. Here binding means that the protein was enriched with, or labelled near, the bait; the list need not be complete.
B1: ACBD5 (acyl-CoA binding domain protein), endogenous (protein, UniProt Q5T8D3 1-534)
chain: MFQFHAGSWESWCCCCLIPADRPWDRGQHWQLEMADTRSVHETRFEAAVKVIQSLPKNGSFQPTNEMMLKFYSFYKQATEGPCKLSRPGFWDPIGRYKWDAWSSLGDMTKEEAMIAYVEEMKKIIETMPMTEKVEELLRVIGPFYEIVEDKKSGRSSDITSVRLEKISKCLEDLGNVLTSTPNAKTVNGKAESSDSGAESEEEEAQEEVKGAEQSDNDKKMMKKSADHKNLEVIVTNGYDKDGFVQDIQNDIHASSSLNGRSTEEVKPIDENLGQTGKSAVCIHQDINDDHVEDVTGIQHLTSDSDSEVYCDSMEQFGQEESLDSFTSNNGPFQYYLGGHSSQPMENSGFREDIQVPPGNGNIGNMQVVAVEGKGEVKHGGEDGRNNSGAPHREKRGGETDEFSNVRRGRGHRMQHLSEGTKGRQVGSGGDGERWGSDRGSRGSLNEQIALVLMRLQEDMQNVLQRLQKLETLTALQAKSSTSTLQTAPQPTSQRPSWWPFEMSPGVLTFAIIWPFIAQWLVYLYYQRRRRKLN
B2: RMDN2, endogenous (protein, UniProt Q96LZ7 1-410)
chain: MPYSTNKELILGIMVGTAGISLLLLWYHKVRKPGIAMKLPEFLSLGNTFNSITLQDEIHDDQGTTVIFQERQLQILEKLNELLTNMEELKEEIRFLKEAIPKLEEYIQDELGGKITVHKISPQHRARKRRLPTIQSSATSNSSEEAESEGGYITANTDTEEQSFPVPKAFNTRVEELNLDVLLQKVDHLRMSESGKSESFELLRDHKEKFRDEIEFMWRFARAYGDMYELSTNTQEKKHYANIGKTLSERAINRAPMNGHCHLWYAVLCGYVSEFEGLQNKINYGHLFKEHLDIAIKLLPEEPFLYYLKGRYCYTVSKLSWIEKKMAATLFGKIPSSTVQEALHNFLKAEELCPGYSNPNYMYLAKCYTDLEENQNALKFCNLALLLPTVTKEDKEAQKEMQKIMTSLKR

Amino acid sequences for entries named in this document (tags omitted). Residues count along the entry.
UniProt O95292, residues 7-124: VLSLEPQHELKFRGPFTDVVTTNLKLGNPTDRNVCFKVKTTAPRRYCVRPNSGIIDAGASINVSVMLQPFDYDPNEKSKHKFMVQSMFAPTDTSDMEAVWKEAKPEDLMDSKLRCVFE
UniProt O14965: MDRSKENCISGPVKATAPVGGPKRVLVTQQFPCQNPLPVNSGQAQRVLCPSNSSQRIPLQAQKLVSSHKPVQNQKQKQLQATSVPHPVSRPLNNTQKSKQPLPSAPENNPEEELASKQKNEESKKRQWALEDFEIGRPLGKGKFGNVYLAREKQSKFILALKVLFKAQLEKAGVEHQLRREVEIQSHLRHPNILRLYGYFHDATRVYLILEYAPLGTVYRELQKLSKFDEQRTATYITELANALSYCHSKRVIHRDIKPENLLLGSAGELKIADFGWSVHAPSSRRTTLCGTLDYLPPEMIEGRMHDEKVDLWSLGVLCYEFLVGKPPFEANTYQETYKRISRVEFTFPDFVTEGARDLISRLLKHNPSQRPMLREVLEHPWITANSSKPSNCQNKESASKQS
UniProt Q96GD4: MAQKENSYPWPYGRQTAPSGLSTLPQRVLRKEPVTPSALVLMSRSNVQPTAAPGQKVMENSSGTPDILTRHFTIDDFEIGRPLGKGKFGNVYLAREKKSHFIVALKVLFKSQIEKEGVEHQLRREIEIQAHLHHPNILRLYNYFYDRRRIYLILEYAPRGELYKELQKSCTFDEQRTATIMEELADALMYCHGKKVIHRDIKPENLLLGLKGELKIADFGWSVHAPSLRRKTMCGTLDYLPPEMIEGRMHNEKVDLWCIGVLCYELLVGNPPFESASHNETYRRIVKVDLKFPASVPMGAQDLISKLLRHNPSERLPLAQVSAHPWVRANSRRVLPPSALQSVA
UniProt Q8WYP5: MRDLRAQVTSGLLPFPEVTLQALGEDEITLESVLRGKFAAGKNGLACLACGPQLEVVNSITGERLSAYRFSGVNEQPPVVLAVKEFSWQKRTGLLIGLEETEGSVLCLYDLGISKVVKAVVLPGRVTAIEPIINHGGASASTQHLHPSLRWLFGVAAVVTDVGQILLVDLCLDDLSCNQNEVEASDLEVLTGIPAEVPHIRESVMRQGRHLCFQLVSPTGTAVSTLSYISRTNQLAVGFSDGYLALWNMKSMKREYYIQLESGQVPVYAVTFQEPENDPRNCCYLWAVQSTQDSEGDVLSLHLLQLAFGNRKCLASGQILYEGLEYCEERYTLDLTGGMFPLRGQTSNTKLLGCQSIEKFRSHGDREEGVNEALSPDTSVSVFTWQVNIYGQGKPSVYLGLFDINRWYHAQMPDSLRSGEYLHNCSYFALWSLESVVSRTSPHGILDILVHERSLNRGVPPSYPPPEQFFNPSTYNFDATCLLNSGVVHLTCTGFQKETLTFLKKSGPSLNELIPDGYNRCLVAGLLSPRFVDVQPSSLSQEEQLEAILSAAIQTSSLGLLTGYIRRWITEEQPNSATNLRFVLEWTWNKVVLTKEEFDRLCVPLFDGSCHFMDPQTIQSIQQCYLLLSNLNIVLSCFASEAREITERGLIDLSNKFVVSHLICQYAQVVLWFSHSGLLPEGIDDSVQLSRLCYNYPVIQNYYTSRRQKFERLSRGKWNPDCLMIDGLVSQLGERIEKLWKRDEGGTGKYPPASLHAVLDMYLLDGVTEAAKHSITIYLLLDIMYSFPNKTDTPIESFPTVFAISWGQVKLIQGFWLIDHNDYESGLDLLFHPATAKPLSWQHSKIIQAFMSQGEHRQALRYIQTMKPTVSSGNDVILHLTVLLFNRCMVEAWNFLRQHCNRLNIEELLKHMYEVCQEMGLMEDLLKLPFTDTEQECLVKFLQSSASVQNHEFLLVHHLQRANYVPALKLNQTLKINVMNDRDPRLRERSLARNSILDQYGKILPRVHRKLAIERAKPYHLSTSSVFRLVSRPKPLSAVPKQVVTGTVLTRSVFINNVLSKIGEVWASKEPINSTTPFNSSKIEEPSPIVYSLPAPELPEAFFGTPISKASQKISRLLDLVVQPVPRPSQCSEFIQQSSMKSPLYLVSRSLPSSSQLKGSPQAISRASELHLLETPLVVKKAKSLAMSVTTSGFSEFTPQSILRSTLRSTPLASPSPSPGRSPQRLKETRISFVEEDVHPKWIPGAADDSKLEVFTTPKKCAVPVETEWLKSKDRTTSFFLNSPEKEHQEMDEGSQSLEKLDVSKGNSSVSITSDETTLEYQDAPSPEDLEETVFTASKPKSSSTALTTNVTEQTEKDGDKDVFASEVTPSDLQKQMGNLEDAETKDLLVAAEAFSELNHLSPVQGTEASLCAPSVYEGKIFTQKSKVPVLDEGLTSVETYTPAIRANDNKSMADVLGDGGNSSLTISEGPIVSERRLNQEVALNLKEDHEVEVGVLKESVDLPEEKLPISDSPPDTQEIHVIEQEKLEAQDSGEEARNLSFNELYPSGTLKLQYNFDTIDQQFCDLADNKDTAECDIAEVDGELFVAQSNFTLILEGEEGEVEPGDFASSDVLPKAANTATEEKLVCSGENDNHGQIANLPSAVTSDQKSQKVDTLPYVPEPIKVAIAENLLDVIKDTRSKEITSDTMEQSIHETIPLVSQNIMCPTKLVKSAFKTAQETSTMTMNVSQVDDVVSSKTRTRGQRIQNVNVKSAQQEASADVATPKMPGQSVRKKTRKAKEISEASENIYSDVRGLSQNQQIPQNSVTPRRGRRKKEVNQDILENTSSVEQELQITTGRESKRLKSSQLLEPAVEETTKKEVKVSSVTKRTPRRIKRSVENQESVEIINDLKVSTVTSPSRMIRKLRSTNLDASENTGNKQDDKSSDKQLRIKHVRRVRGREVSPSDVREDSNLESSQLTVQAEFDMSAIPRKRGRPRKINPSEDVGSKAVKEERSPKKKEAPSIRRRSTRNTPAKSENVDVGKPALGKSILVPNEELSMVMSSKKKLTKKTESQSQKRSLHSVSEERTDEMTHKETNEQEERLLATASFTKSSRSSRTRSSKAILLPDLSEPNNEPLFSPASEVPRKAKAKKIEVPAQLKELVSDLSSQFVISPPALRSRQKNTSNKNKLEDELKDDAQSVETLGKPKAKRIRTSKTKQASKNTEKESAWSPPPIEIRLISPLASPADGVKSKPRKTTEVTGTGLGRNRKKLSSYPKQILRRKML

Biological target: GST-VAPB-MSP (wild-type MSP-domain of VAPB fused to a GST-tag) (UniProt O95292)
Test: affinity purification with mass spectrometry; GST-MSP or GST on GST-Selector beads, lysates of asynchronous and of mitotic (DME) HeLa cells; eluted proteins analysed by DIA-MS; only the target purified

| binding | Molecule |
| --- | --- |
| binds | Aurora kinase A, endogenous (from UniProt O14965 1-403) (enzyme) |
| binds | Aurora kinase B, endogenous (from UniProt Q96GD4 1-344) (enzyme) |
| binds | ELYS (embryonic large molecule derived from yolk sac), endogenous, HeLa (from UniProt Q8WYP5 1-2266) |
| binds | B1 |
| binds | B2 |

— PMC11094025
